# Test results reported in paper doi:10.1101/2021.08.01.454623.
# For at least one entry, the source does not settle the construct or the ends of the probe. For some of these results: Weaker means in comparison with the reference protein, sequence or condition of that experiment. For some of these results: At least one verdict rests on a figure or table, not on a statement of the authors.
# What was measured:
# [1] = system: CL11-E (early 10-amino-acid variant); test: EMSA; conditions: 20 mM Mg2+, 175 mM K+, 2 uM each
# [2] = system: CL11-M (mid-stage 14-amino-acid variant); test: EMSA; conditions: 20 mM Mg2+, 175 mM K+, 2 uM each
# [3] = system: CL11-E (early 10-amino-acid variant); test: pull-down
# [4] = target: CL11 (ribosomal protein L11 C-terminal domain, wild type) (Bacillus stearothermophilus) (UniProt P56210); test: native ion mobility MS; conditions: 9- charge state of complex, RNA label form not stated
# [5] = system: CL11-E (early 10-amino-acid variant); test: native ion mobility MS; conditions: 9- charge state of complex, RNA label form not stated
Sequence,binding result [1],binding result [2],binding result ([3]; 40 to 50 C),binding result ([3]; extreme pH),binding result ([3]; no Mg2+ and K+),binding result [4],binding result [5]
GCCAGGAUGUAGGCUUAGAAGCAGCCAUCAUUUAAAGAAAGCGUAAUAGCUCACUGGU [f58rRNA (fluorescent 58rRNA)],binds,binds,,,,,
GCCAGGAUGUAGGCUUAGAAGCAGCCAUCAUUUAAAGAAAGCGUAAUAGCUCACUGGU [biotinylated 58rRNA],,,binds more weakly,binds more weakly,binds more weakly,binds,binds
